The values below come from publication PMC5354814, “In silico and in vitro drug screening identifies new therapeutic approaches for Ewing sarcoma” (Oncotarget, 2016).

Structures are written as SMILES.

Common to all, as to assay type: cell-based
The test system of test [1] is SK-ES-1. As to the kind of experiment: In vitro high-throughput screen of FDA-approved drug library (CellTiter-Glo). Particulars: Homo sapiens, SK-ES1; 1 μmol/L drug, 72 hours. As to the method: (§1) We screened, in parallel to the three computational approaches, an FDA-approved drug library containing 2,316 drugs (1,536 unique chemical entities). […] The drug screening study protocol employed is summarized in Supplementary Table S1.
(§2) Cells were grown to 80–90% confluence, harvested and aliquoted into 384-well plates (black μClear microplates, Greiner bio-one, Germany) at concentrations of 750–1,500 cells per well in a total volume of 25 μl/well using a Matrix Wellmate (Thermo Scientific). Cells were cultured for 72 hours in a 5% CO2 atmosphere at 37°C. Aliquots of 25 μl CellTiter-Glo® Reagent (Promega) were added directly to each well, the plates were incubated at room temperature for 20 min and the luminescence signal was measured according to the manufacturer's protocol. The measurements were made using Infinite® M200 Pro plate reader (Tecan, Switzerland). […] Data were normalized to percentage inhibition. […]
(§3) (A) Color scale for drug inhibition values. […]
On the technique in general: Cellular ATP, detected with luciferase, serves as a proxy for viable cell number.

The test system of test [2] is RD-ES. Described as above. The settings on record: 1 μmol/L drug, 72 hours. As to the method:
as §1, §2, §3

The subject of another test is A673. The test is described as above. Particulars: Homo sapiens, 1 μmol/L drug, 72 hours. As to the method:
as §1, §2, §3

In test [3] the test system is Hs 919.T. The description is as above. The settings on record: 1 μmol/L drug, 72 hours, control cell line. The protocol: as §1, §2, §3
Another test relates to CHLA-258. The test is described as follows: Hits validation, dose-response cell proliferation (CellTiter-Glo). The settings on record: 12-point dose-response 50 μmol/L to 1 nmol/L, mean ± SD. The protocol:
(§4) For hits validation and combination study, cells were harvested and aliquoted into 384-well plates at concentrations of 750–1,500 cells per well in a total of 20 μl/well using a Matrix Wellmate (Thermo Scientific). Five μl of culture media containing either vehicles or drug were added to each well the next day (drug concentrations range from 1 nmol/L to 50 μmol/L). For combination study, selected drugs were archived in robotically accessible plates, to which media was added in preparation for addition to master plates by a Nimbus 96 liquid-dispensing workstation (Hamilton). Liquid transfers to dilution and assay plates were handled using the same workstation. Each 384-well master plate contained four 9 by 9 dose-matrix blocks, with eight serial two-fold dilutions (concentrations range from 7.8 nmol/L to 1 μmol/L). Additional wells were reserved for untreated, and vehicle-treated control wells. Cell proliferation was evaluated using Cell-Titer Glo® reagents (Promega). IC50 values were determined for each drug using SigmaPlot (Systat Software). The combination index values were calculated using SigmaPlot (Systat Software) and CompuSyn.

Test [4] has as its system SK-ES-1. The description is as above. The settings on record: Homo sapiens, SK-ES1; 12-point dose-response 50 μmol/L to 1 nmol/L, mean ± SD. The protocol:
as §4

Test [5] relates to RD-ES. The test is described as above. Particulars: 12-point dose-response 50 μmol/L to 1 nmol/L, mean ± SD. The protocol: as §4
A further test concerns Hs 863.T. Described as above. The settings on record: control cell line, 12-point dose-response, mean ± SD. The protocol: as §4
The subject of another test is TC-71. The test is described as above. The settings on record: 12-point dose-response 50 μmol/L to 1 nmol/L, mean ± SD. The protocol: as §4
The subject of a further test is Hs 822.T. The description is as above. The settings on record: control cell line, 12-point dose-response, mean ± SD. The protocol: as §4
A further test concerns COG-E-352. The test is described as above. The settings on record: 12-point dose-response 50 μmol/L to 1 nmol/L, mean ± SD. The protocol: as §4
The subject of test [6] is Hs 919.T. The test is described as above. The settings on record: control cell line, 12-point dose-response, mean ± SD. As to the method:
These drugs were chosen based on their known mechanisms and safety profiles. We also tested the synergy between these drug hits (Supplementary Figures S6–S11). […] We evaluated the anti-proliferation effect in combination treatments using the EWS and control cell lines.
as §4, with “Additional wells were reserved for untreated, and vehicle-treated control wells.” left out

With `CN1CCC[C@@H]1CCO[C@](C)(c1ccccc1)c1ccc(Cl)cc1` [Clemastine], the inhibition – broadly, the share of the control response that was lost under treatment – at 1 µM with SK-ES-1 [1] is less than 50%; with RD-ES [2], less than 50%; in the test on A673, 60%; with Hs 919.T. [3] it was less than 50%.
As for `CSc1ccc2c(c1)N(CCC1CCCCN1C)c1ccccc1S2` (stereo not drawn) [Thioridazine], the IC50 (as a rule, the concentration that inhibits the measured activity by half) stood at 16.1 ± 5.52 µM in the test with CHLA-258; 15.9 ± 2.47 µM with SK-ES-1 [4]; 15 ± 1.45 µM in the test on RD-ES [5]; 9.24 ± 2.01 µM with Hs 863.T.; 15.9 ± 1.38 µM with TC-71; 8.5 ± 1.58 µM in the test on Hs 822.T.. For the same molecule, the IC50 in the test with COG-E-352 was found to be 10.6 ± 4.37 µM; in the test with Hs 919.T. [6] it was 8.84 ± 1.29 µM.
